Results taken from publication PMC6799934.
These are yes or no findings as the source states them, for the method shown. In cells and extracts the contact can be indirect. Some binding calls cover weakened binding; strength is not graded here. Tags and fused reporters may be left off the sequences shown.

Biological target: STING-Flag (chicken STING), expressed in DF-1 (chicken) (UniProt E1C7U0)
Experiment: co-IP; DF-1 cells cotransfected with tagged plasmids for 36 h, with or without Meq; lysed in ice-cold Pierce IP buffer; antibodies at 4 °C overnight, Protein G Sepharose 6 h, six washes with PBS; immunoblot

B1: STING-Flag (chicken STING), expressed in DF-1 (protein, UniProt E1C7U0 1-379)
chain: MPQDPSTRSSPARLLIPEPRAGRARHAACVLLAVCFVVLFLSGEPLAPIIRSVCTQLAALQLGVLLKGCCCLAEEIFHLHSRHHGSLWQVLCSCFPPRWYLALLLVGGSAYLDPPEDNGHSPRLALTLSCLCQLLVLALGLQKLSAVEVSELTESSKKNVAHGLAWSYYIGYLKVVLPRLKECMEELSRTNPMLRAHRDTWKLHILVPLGCDIWDDLEKADSNIQYLADLPETILTRAGIKRRVYKHSLYVIRDKDNKLRPCVLEFASPLQTLCAMSQDDCAAFSREQRLEQARLFYRSLRDILGSSKECAGLYRLIAYEEPAEPESHFLSGLILWHLQQQQREEYMVQEELPLGTSSVELSLQVSSSDLPQPLRSDCP
binding: binds
